Results: paper PMC11001723
Results are given in words; binding and its absence hold for the method and conditions named. Binding seen in cells or lysates may run through a third protein. Some binding calls cover weakened binding; strength is not graded here.

The chains behind the UniProt entries cited, without tags or fusion partners.
UniProt P28741: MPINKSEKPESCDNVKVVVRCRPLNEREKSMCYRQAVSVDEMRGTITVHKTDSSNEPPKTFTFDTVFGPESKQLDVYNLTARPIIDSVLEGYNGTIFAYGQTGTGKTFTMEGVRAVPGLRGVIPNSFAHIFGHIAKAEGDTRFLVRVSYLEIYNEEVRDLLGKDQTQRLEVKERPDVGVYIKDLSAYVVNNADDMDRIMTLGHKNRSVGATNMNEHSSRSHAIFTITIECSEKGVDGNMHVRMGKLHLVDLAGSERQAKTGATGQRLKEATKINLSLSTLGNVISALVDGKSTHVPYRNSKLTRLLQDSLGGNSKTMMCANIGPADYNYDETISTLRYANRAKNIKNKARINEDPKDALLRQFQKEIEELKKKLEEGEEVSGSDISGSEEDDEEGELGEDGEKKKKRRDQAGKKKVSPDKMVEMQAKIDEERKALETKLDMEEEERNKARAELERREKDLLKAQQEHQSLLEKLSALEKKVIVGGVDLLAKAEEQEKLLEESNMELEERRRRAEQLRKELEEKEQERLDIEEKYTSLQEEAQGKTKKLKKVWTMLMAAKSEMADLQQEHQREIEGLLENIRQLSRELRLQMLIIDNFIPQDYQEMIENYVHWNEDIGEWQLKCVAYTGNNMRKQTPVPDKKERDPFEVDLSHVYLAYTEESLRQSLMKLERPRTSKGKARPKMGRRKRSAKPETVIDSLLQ
UniProt E9Q7G0: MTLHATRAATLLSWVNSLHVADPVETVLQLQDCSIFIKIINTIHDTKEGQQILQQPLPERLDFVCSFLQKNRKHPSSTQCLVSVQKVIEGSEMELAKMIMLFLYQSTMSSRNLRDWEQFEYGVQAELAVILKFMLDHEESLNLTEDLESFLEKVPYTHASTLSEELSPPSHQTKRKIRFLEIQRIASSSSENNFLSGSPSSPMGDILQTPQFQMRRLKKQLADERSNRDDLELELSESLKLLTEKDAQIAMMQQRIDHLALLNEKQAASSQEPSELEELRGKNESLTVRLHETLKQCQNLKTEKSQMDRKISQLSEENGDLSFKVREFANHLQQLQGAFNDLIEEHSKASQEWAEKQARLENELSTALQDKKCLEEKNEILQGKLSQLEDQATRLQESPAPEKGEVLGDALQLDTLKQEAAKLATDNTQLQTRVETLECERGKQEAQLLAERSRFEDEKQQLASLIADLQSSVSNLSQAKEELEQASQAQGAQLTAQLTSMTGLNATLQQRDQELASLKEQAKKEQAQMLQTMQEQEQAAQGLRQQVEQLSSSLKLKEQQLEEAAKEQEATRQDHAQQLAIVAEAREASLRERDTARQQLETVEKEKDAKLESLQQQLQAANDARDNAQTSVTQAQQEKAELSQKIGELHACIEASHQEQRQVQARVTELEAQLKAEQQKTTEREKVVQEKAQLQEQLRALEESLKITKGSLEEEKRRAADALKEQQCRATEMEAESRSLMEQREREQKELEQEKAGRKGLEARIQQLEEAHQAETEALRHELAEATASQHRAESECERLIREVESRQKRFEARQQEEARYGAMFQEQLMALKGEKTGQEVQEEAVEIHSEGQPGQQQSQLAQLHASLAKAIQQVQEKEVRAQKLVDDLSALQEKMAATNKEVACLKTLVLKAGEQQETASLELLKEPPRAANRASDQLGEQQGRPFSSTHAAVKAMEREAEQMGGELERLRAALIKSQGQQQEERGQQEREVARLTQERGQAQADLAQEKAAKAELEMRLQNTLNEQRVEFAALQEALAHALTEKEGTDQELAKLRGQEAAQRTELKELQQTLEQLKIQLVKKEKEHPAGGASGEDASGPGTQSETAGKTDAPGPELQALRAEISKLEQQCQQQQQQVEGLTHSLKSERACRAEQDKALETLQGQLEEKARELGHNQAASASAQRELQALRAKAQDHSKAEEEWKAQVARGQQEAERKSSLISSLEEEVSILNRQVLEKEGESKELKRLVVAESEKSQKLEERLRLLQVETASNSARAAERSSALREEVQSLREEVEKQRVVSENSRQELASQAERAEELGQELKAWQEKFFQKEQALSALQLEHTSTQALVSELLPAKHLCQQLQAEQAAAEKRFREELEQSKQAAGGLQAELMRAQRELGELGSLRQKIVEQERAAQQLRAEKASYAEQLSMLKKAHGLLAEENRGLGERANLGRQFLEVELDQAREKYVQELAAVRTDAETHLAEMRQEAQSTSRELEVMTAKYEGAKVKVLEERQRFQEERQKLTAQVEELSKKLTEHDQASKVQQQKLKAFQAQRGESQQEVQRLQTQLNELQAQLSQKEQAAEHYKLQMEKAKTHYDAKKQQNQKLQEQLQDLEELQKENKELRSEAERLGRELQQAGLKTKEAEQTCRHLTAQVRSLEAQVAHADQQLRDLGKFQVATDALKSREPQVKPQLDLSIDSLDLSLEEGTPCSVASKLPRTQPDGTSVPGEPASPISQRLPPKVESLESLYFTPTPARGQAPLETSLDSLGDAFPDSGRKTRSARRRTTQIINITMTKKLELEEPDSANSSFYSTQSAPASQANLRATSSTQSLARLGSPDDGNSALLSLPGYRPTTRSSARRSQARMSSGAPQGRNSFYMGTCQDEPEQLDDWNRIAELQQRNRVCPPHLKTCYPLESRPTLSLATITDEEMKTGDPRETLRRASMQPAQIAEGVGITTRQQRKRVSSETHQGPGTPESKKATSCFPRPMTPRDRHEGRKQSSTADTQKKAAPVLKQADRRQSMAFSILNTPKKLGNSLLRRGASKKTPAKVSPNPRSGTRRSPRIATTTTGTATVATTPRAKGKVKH

Biological target: Kinesin family member 3A (mouse (endogenous in ovary)) (UniProt P28741)
Experiment: co-IP; rabbit anti-KIF3A antibody on Dynabeads Protein G, incubated with lysate of 6 mouse ovaries for 6 h at 4 °C, washed three times, eluted; partners detected by western blot

binding: binds
Substance: nuclear mitotic apparatus protein (from UniProt E9Q7G0 1-2094)
